Source: article PMC4279409
Results are given in words; binding and its absence hold for the method and conditions named. Binding seen in cells or lysates may run through a third protein. Some binding calls cover weakened binding; strength is not graded here.

Molecular target: T1, Chromobox homolog 8 (CBX8) (human (endogenous in CRC cells)) (UniProt Q9HC52)
T1 sequence: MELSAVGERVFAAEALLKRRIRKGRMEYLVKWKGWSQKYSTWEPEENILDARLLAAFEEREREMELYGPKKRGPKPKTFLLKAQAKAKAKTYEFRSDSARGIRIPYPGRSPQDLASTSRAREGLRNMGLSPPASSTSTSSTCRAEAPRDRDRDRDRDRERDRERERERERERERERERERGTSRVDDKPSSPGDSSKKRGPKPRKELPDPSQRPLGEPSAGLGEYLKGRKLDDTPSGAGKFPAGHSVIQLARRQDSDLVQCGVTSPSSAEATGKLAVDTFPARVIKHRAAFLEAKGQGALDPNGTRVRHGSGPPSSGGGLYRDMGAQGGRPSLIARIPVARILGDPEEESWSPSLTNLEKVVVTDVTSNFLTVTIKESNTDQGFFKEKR
Assay: co-IP; endogenous proteins; clarified CRC cell lysate in MCLB (50 mM Tris-HCl pH 8.0, 100 mM NaCl, 0.5 % Nonidet P-40, 5 mM EDTA, 2 mM DTT) incubated with anti-CBX8 antibody (Bethyl) 2 h at 4°C, then protein A/G-agarose; five washes; western blotting

**Q.** For p53 (from UniProt P04637 1-393), which binding is on record?
**A.** binds
